Measured data: PubChem BioAssay AID1259308 (NCATS, 2017)

Purpose: 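Knock-downs that increase output of a recombinant reporter protein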 (primary screen)
Cells: human HEK293 embryonic kidney cells stably expressing firefly luciferase (HEK-CMV-Luc2-Hygro)
Reagent: single siRNA against human genes, 0.8 pmol siRNA per well
Duration: 72 h
Measured: 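Luciferase light (ONE-Glo) measured on one replicate plate set and viability (CellTiter-Glo) on the other, scaled to a negative control siRNA, with robust z-scores and luciferase per cell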
Scale: total luciferase, z-score and total luciferase, % of control: higher = more reporter protein produced
Rule for the call: 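An siRNA counts as active if its total luciferase robust z-score exceeds 3; genes with two or more such siRNAs out of three were retested with fresh siRNAs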
Calls: active = raised luciferase; inactive = no rise
Here is a random part of about 59,000 reagents. Over the whole deposit, about 1,510 (2.6%) are marked active. 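Calls use total luciferase alone and ignore viability, so some active siRNAs may act by altering cell number.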 Unmarked entries are inactive. The numbers tell different reagents against one gene apart. Not all columns of the deposit are shown.

For MRPL3 #1, what was measured?
total luciferase, z-score: 0.597; total luciferase, % of control: 93.8

How did the screen score MRPL3 #2?
total luciferase, z-score: 0.117; total luciferase, % of control: 84.2

With MRPL3 #3, how do the results read?
total luciferase, z-score: 1.15; total luciferase, % of control: 105

For ZAP70 #1, how do the results read?
total luciferase, z-score: 3.9 (active); total luciferase, % of control: 159

How did the screen score ZAP70 #2?
total luciferase, z-score: 1.77; total luciferase, % of control: 117

What is on record for ZAP70 #3?
total luciferase, z-score: 0.643; total luciferase, % of control: 94.7

What did the screen give for TMEM266 #1?
total luciferase, z-score: -0.000631; total luciferase, % of control: 81.9

For TMEM266 #2, what does the deposit list?
total luciferase, z-score: 2.35; total luciferase, % of control: 129

For TMEM266 #3, how do the results read?
total luciferase, z-score: 1.02; total luciferase, % of control: 102

3 successive records already listed, quoted:
MRPL3 #3 → total luciferase, z-score: 1.15; total luciferase, % of control: 105
ZAP70 #1 → total luciferase, z-score: 3.9 (active); total luciferase, % of control: 159
ZAP70 #2 → total luciferase, z-score: 1.77; total luciferase, % of control: 117

Additional records follow.
With SRFBP1 #1, what was measured?
total luciferase, z-score: -0.747; total luciferase, % of control: 67

What is on record for SRFBP1 #2?
total luciferase, z-score: -1.99; total luciferase, % of control: 42.4

What did the screen give for SRFBP1 #3?
total luciferase, z-score: -1.27; total luciferase, % of control: 56.6

What did the screen give for DAOA #1?
total luciferase, z-score: -0.36; total luciferase, % of control: 74.7

With DAOA #2, how do the results read?
total luciferase, z-score: 0.171; total luciferase, % of control: 85.3

What is on record for DAOA #3?
total luciferase, z-score: -0.00401; total luciferase, % of control: 81.8

Which result is listed for TOMM22P3 #1?
total luciferase, z-score: -0.346; total luciferase, % of control: 75

For TOMM22P3 #2, what was measured?
total luciferase, z-score: 0.524; total luciferase, % of control: 92.3

Which result is listed for TOMM22P3 #3?
total luciferase, z-score: 1.96; total luciferase, % of control: 121

What is on record for CD99L2 #1?
total luciferase, z-score: 0.872; total luciferase, % of control: 99.2

How did the screen score CD99L2 #2?
total luciferase, z-score: -1.5; total luciferase, % of control: 52

With CD99L2 #3, what does the deposit list?
total luciferase, z-score: -0.598; total luciferase, % of control: 70
